Results are given in words; binding and its absence hold for the method and conditions named. In cells and extracts the contact can be indirect. These calls come from enrichment with a bait or labelling near it, and not all partners need be listed.
Target: T1, Calcium/calmodulin-dependent protein kinase IV (CaMK4), mouse (mouse (endogenous in RAW264.7 and BMDMs)) (UniProt P08414)
T1 sequence: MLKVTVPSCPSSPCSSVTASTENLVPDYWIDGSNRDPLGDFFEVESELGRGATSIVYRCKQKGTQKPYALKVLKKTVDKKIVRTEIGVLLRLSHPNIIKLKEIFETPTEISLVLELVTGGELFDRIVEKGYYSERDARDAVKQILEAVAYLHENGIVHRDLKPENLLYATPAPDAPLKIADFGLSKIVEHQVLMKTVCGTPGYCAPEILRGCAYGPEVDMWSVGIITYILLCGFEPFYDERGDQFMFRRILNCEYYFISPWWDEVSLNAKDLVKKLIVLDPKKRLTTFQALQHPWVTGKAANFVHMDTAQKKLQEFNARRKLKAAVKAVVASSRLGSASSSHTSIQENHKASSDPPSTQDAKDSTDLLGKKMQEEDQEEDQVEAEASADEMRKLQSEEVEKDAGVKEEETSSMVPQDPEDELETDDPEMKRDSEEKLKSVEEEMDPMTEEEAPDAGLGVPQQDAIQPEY
Assay: affinity purification with mass spectrometry; co-IP with CaMK4 Ab or rabbit IgG from RAW264.7 cells, supernatants analysed by LC-MS/MS

The chains behind the UniProt entries cited, without tags or fusion partners.
UniProt O88444: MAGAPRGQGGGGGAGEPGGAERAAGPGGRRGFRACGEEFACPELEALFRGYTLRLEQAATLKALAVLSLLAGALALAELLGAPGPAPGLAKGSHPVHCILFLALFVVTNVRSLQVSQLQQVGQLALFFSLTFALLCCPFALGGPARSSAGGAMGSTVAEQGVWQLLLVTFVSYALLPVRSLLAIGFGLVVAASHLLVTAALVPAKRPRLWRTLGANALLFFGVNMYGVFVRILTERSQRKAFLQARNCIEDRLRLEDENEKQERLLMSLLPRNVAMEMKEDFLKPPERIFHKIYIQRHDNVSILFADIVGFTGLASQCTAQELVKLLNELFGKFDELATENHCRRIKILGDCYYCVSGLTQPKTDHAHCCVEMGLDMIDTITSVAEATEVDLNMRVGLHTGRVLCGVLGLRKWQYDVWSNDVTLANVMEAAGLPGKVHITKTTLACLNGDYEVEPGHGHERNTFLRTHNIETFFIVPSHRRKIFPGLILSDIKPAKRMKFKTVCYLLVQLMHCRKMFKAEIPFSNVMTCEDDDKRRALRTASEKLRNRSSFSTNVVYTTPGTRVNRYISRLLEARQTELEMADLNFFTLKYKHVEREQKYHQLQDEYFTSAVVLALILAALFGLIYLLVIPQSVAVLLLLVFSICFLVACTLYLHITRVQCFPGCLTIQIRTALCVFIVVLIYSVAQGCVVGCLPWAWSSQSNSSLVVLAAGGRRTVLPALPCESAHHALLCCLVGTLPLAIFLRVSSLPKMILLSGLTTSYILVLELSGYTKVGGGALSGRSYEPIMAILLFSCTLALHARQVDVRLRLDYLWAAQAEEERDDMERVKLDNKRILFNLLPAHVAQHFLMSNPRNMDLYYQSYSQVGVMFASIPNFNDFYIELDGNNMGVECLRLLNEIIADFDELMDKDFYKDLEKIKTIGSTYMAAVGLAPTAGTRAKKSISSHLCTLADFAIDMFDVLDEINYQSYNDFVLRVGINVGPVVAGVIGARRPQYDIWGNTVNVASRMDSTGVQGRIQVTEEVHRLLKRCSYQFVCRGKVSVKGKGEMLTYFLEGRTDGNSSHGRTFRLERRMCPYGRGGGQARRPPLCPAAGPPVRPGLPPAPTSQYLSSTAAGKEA

binding: binds
Substance: adenylyl cyclase 1 (ADCY1), mouse (from UniProt O88444 1-1118) (enzyme)

Source: publication PMC9307837
